Results taken from patent publication US5430018A, “Cyclohexapeptide with basic nitrogen containing alkylamide groups” (priority 1991, dated 1995).
Values after ≈ are worked out from the molar mass of the structure shown. At least one peptide structure holds a part that was inferred or is arguable (an end, a ring closure or a residue).

Legend:
C. albicans MY 1055 = type: cell-based, Candida albicans; details: YNBD medium, 24 hours incubation, then plated on SDA 24 hours at 35° C.
Procedure: The compounds of the present invention are active against many fungi and particularly against Candida species. The antifungal properties maybe illustrated with the minimum fungicidal concentration (MFC) determination against certain Candida organisms in a microbroth dilution assay carried out in a Yeast Nitrogen Base (Difco) medium with 1% dextrose (YNBD). In separate assays, the compounds (all Seq. ID No. 1) were solubilized in 10% dimethyl sulfoxide (DMSO) and diluted to 2560 μg/ml. The solution was then diluted to 256 μg/ml in YNBD and dispensed via a multichannel pipetter into the top row of a 96-well plate (each well containing 0.15 ml of YNBD), resulting in a drug concentration of 128 μg/ml. Compounds in the top row were diluted 2-fold down the columns yielding final drug concentrations ranging from 128-0.06 μg/ml. All tests were performed in duplicate. A four-hour broth culture of C. albicans MY 1055 was adjusted using a spectrophotometer at 530 nm to equal a 0.5 McFarland Standard. This yields a cell concentration of 1-5×10^6 colony forming units (CFU)/ml. The 96-well microplates were inoculated using an MIC-2000 (Dynatech), which delivers […] per well, yielding a final inoculum per well of 1.5-7.5×10^3 cells. One column per tray containing drug-free growth control wells was included. After 24 hours of incubation, the microtiter plates were shaken gently on a shaker to resuspend the cells. The MIC-2000 inoculator was used to transfer a 1.5 microliter sample from each well of the 96-well microtiter plate to a single reservoir inoculum plate containing Sabouraud dextrose agar (SDA). The inoculated SDA plates were incubated for 24 hours at 35° C.

C. albicans MY 1028 = type: cell-based, Candida albicans; details: YNBD medium, 24 hours incubation, then plated on SDA 24 hours at 35° C.

CCC(C)CC(C)CCCCCCCCC(=O)NC1CC(O)CNC(=O)C2C(O)CCN2C(=O)C(C(O)CC(=O)NCCN2CCCCC2)NC(=O)C(C(O)Cc2ccc(O)cc2)NC(=O)C2CC(O)CN2C(=O)C(C(C)O)NC1=O (centres unmarked) [Compound II]
MFC C. albicans MY 1055 (C. albicans MY 1055): 0.25 µg/mL (≈ 0.218 µM) | MFC C. albicans MY 1028 (C. albicans MY 1028): 0.25 µg/mL (≈ 0.218 µM)

CCC(C)CC(C)CCCCCCCCC(=O)NC1CC(O)CNC(=O)C2C(O)CCN2C(=O)C(C(O)CC(=O)NCCN2CCOCC2)NC(=O)C(C(O)Cc2ccc(O)cc2)NC(=O)C2CC(O)CN2C(=O)C(C(C)O)NC1=O (centres unmarked) [Compound I]
MFC C. albicans MY 1055 (C. albicans MY 1055): 2 µg/mL (≈ 1.74 µM) | MFC C. albicans MY 1028 (C. albicans MY 1028): < 0.06 µg/mL

CCC(C)CC(C)CCCCCCCCC(=O)NC1CC(O)CNC(=O)C2C(O)CCN2C(=O)C(C(O)CC(=O)NC2CN3CCC2CC3)NC(=O)C(C(O)Cc2ccc(O)cc2)NC(=O)C2CC(O)CN2C(=O)C(C(C)O)NC1=O (centres unmarked) [Compound VI]
MFC C. albicans MY 1055 (C. albicans MY 1055): 0.125 µg/mL (≈ 0.109 µM) | MFC C. albicans MY 1028 (C. albicans MY 1028): 0.125 µg/mL (≈ 0.109 µM)

CCC(C)CC(C)CCCCCCCCC(=O)NC1CC(O)CNC(=O)C2C(O)CCN2C(=O)C(C(O)CC(=O)NCC[N+](C)(C)C)NC(=O)C(C(O)Cc2ccc(O)cc2)NC(=O)C2CC(O)CN2C(=O)C(C(C)O)NC1=O (centres unmarked) [Compound V]
MFC C. albicans MY 1055 (C. albicans MY 1055): 0.25 µg/mL | MFC C. albicans MY 1028 (C. albicans MY 1028): 0.125 µg/mL
